Results on one molecule are retold here after US9164109B2, “Use of probes for unbound metabolites” (priority 2006, dated 2015).

The data set is described as follows: UCBf measurement in 1% adult plasma titrated with UCB. The settings on record: probe 0.5 μM. On the set-up: species or system human.

B1: L24P19C7: UCBf probe; FABP mutein of SEQ ID NO: 4 with Y14R M18L L38V V60R A72L A73F R106C Q115R Y117D (protein, listed as Rattus norvegicus)
chain: AFDGTWKVDRNENREKFLEKMGINVVKRKLGAHDNLKVTITQEGNKFTVKESSNFRNIDRVFELGVDFAYSLFDGTELTGTWTMEGNKLVGKFKRVDNGKELIAVCEISGNELIRTDTYEGVEAKRIFKKDRGHHHHHH
modifications: fluorescent probe label; MUTAGEN (72)...(72) rat intestinal fatty acid binding protein with alanine substitution for leucine at position 72 and Glu 131 to Asp subsitition.
Take B1: for the setting “1% adult plasma titrated with UCB”, the “change of measured [UCBf] with the addition of UCB” value is given as “monotonic increase”. In addition, the “[UCBf] measured without the addition of UCB” value (1% plasma from 6 healthy adult donors) was “nearly zero”.
